Assay results published in PubChem BioAssay AID504467 (National Center for Advancing Translational Sciences (NCATS), 2011).
About 7,700 (2.3%) of roughly 330,000 compounds were called active. Inconclusive means that the source gave no clear call. Such entries were picked first, then a sample of the others. The call rests on the fitted dose curve; in most records, active means well fitted inhibition curve with a large enough effect; inconclusive means small, poorly fitted or top-dose-only effect, or effect the other way; inactive means flat fitted curve, though single readings scatter. A potency beside an inconclusive call is a rough fit, not a confirmed value.

assay: qHTS screen for small molecules that inhibit ELG1-dependent DNA repair in human embryonic kidney (HEK293T) cells expressing luciferase-tagged ELG1; conditions: HEK293T ELG1-luciferase reporter, luminescence, 16 h, DNA damage induced by 5-fluorouridine; activity change, negative = inhibition: at 46.1 µM (top of the series); further: nearly all actives have a fitted effect of over 55% in size
Outline: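 Step one: seed 2,000 cells per well. Step two: pin-transfer compound or DMSO alongside 5-fluorouridine. Step three: incubate 16 hr, 37 °C, 5% CO2. Step four: add ONE-Glo, wait 30 min, read luminescence.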
On the % scale 0 is the no-effect control and ±100 the full control effect; potency means the concentration at half of the fitted maximal effect.

Row | Compound | Potency | activity change, negative = inhibition
1 | Cc1ccc(CNC(=O)CN(C)C2=NS(=O)(=O)c3ccccc32)cc1 | inconclusive: 23.1 µM [inhibitor, single point] | 
2 | CC(=O)N1CC(C)Sc2ccc(S(=O)(=O)NCc3ccccc3Cl)cc21 (stereo not given) | inconclusive: 11.6 µM [inhibitor, partial curve, poor fit] | 
3 | Cc1nc(CN2CCOCC2)cc(=O)[nH]1 | inconclusive: 25.9 µM [activator, partial curve, poor fit] | 
4 | Cc1ccc(C)c(N2CCN(C(=O)c3cc4c(C)nc5ccccc5c4o3)CC2)c1 | inconclusive: 32.6 µM [inhibitor, partial curve, poor fit] | 
5 | Cc1cccc(NC(=O)C(=O)NCc2ccc3c(c2)OCO3)c1C | inconclusive: 16.4 µM [activator, partial curve, poor fit] | 
6 | O=c1cc(-c2ccncc2)oc2c1ccc1ccccc12 | inconclusive: 7.3 µM [inhibitor, partial curve] | 
7 | Cc1cccc(N(O)C(=O)Nc2cccc(Cl)c2)c1 | inconclusive: 20.6 µM [activator, single point] | 
8 | CC1=Nc2ccccc2N=C(N)C1c1ccccc1 (stereo not given) | inconclusive: 14.6 µM [activator, partial curve] | 
9 | CCOC(=O)Cn1nnc(-c2cccc(OC)c2)n1 |  | inactive: 20.1%
10 | COc1ccccc1N(CCC#N)C(=O)CSc1nnc2ccccn12 |  | inactive: 13.9%
11 | CCc1sc(C(=O)Nc2nc(C)cs2)cc1C | inconclusive: 2.31 µM [activator, partial curve] | 
12 | O=C(Nc1ccc(C2=NCCN2)cc1)c1ccc(Cl)c(C(=O)Nc2ccc(C3=NCCN3)cc2)c1 |  | inactive: 5.79%
13 | CCCn1c(C2CCCN2c2nc(C)cs2)nc2cc(Cl)c(Cl)cc21 (stereo not given) | inconclusive: 6.51 µM [activator, single point] | 
14 | COc1ccc(-c2oc3ccccc3c(=O)c2OC(C)=O)cc1 |  | inactive: 3.98%
15 | Cc1cc(C)n2nc(N)c(N=Nc3ccc(Cl)cc3)c2n1 | inconclusive: 29.1 µM [inhibitor, single point] | 
16 | CCOC(CNC(=O)c1cc2c(=O)n(CC)c3ccccc3c2s1)OCC |  | inactive: -13.9%
17 | O=C(NCc1cccc(Cl)c1)N1CCN(S(=O)(=O)c2ccccc2F)CC1 |  | inactive: -10.6%
18 | COc1ccc(-c2nc(SCC(=O)Nc3cccc(S(N)(=O)=O)c3)n[nH]2)cc1 | inconclusive: 23.1 µM [activator, single point] | 
19 | Clc1ccc(-[n+]2c(-c3cccc(Br)c3)[nH]c3nc4ccccc4nc32)cc1 | inconclusive: 20.6 µM [inhibitor, single point] | 
20 | CN(C)c1ccc(/C=C/C=N/Nc2nc(N3CCOCC3)nc(N3CCOCC3)n2)cc1 |  | inactive: 8.37%
21 | CC(=C/c1ccccc1)/C=N/NC(=O)c1cc(C)oc1C | inconclusive: 2.59 µM [activator, full curve] | 
22 | Cc1ccc(C(=O)NNC(=O)c2ccc3c(c2)OCCO3)cc1 | inconclusive: 18.3 µM [activator, partial curve] | 
23 | C=Cn1c(C(=O)O)ccc1-c1ccc(CC)cc1 | inconclusive: 29.1 µM [activator, single point] | 
24 | Cc1cc(C)cc(N(C(=O)c2cccs2)C2C=CS(=O)(=O)C2)c1 (stereo not given) |  | inactive: -8.86%

Row | Compound | Potency | activity change, negative = inhibition
25 | CCCCCC(=O)Nc1cccc(C2=NOC3(C2)C[C@@H](C(N)=O)N(C(=O)Cc2ccc([N+](=O)[O-])cc2)C3)c1 (stereo not given in full) | active: 13 µM | 
26 | Cc1cc(C)c(S(=O)(=O)NCC2CCC(C(=O)NCCCN3CCC(C)CC3)CC2)c(C)c1 (stereo not given) | inconclusive: 14.6 µM [activator, partial curve] | 
27 | O=C(Cc1ccccc1)NNC(=O)c1ccccc1C(=O)O |  | inactive: 10.6%
28 | Cc1cc(C)n(C(=O)/C(C#N)=C/N(C)C)n1 | inconclusive: 32.6 µM [activator, partial curve, poor fit] | 
29 | O=C(O)c1ccc(-n2ncc3c2/C(=C/c2cccc([N+](=O)[O-])c2)CC3)cc1 | inconclusive: 2.06 µM [activator, full curve] | 
30 | O=C(CSc1nnc(NC(=O)c2ccccc2F)s1)NC1CC1 | inconclusive: 23.1 µM [activator, partial curve] | 
31 | CCN(CC)c1ccc(/C=C2\CCC(/C=N/NC(=O)c3ccc(=O)n(C)c3)=C2N2CCOCC2)cc1 | inconclusive: 4.61 µM [inhibitor, partial curve, poor fit] | 
32 | CC(C)c1ccc(Nc2nnc(SCC(=O)c3nnc(-c4ccccc4)o3)s2)cc1 | inconclusive: 2.06 µM [activator, full curve] | 
33 | Nc1cc(Cl)ccc1Oc1ccccc1 |  | inactive: 28.8%
34 | CCOc1cc(C=NNC(=O)c2cccc(S(=O)(=O)N3CCCC3)c2)ccc1O | inconclusive: 29.1 µM [inhibitor, single point] | 
35 | CN(C)c1ccc(C(=O)OCC(=O)NC2CCCCCC2)cc1 |  | inactive: -17.5%
36 | CCCCN(C(=O)NC(=O)Nc1nc2ccc(OC)cc2s1)S(C)(=O)=O | inconclusive: 10.3 µM [activator, partial curve] | 
37 | COc1cc(CCCN2CCNC[C@@H]2Cc2ccc(O)cc2)cc(OC)c1OC | inconclusive: 16.4 µM [activator, single point] | 
38 | CC(=O)N1c2ccc(S(=O)(=O)NCc3ccccc3Cl)cc2CC1C (stereo not given) |  | inactive: -9.79%
39 | NC(=NCCCCCCN=C(N)/N=C(\N)Nc1ccc(Cl)cc1)/N=C(\N)Nc1ccc(Cl)cc1 | inactive | 
40 | CCN(CC(=O)Nc1ccc(OC)cc1)C(=O)c1ccccc1Sc1ccccc1C#N |  | inactive: -20.5%
41 | Cc1ccc(S(=O)(=O)NC(CC(=O)O)c2cccs2)cc1 (stereo not given) |  | inactive: 10.2%
42 | COc1ccc(/C=C2\CN(Cc3ccccc3)C/C(=C\c3ccc(OC)cc3)C2=O)cc1 | inconclusive: 29.1 µM [inhibitor, single point] | 
43 | FC(F)Sc1ccc(Nc2ncnc3nc[nH]c23)cc1 | inconclusive: 5.8 µM [activator, partial curve] | 
44 | CCOC(=O)N1CCC(NC(=O)c2ccc3c(c2)N=C(CC)c2cc(C)ccc2S3)CC1 | inconclusive: 18.3 µM [inhibitor, partial curve] | 
45 | CCOC(=O)N1CCN(c2nc(-c3ccccc3)c3cc(C)ccc3n2)CC1 | inconclusive: 14.6 µM [inhibitor, partial curve, poor fit] | 
46 | Cc1ccc(Cn2c(C)nc3c(c2=O)c2nc4ccccc4nc2n3Cc2ccco2)cc1 | inconclusive: 29.1 µM [inhibitor, single point] | 
47 | CCOC(=O)c1cccc(NC(=O)c2cccs2)c1 | inconclusive: 25.9 µM [activator, partial curve, poor fit] | 
48 | O=C(NCc1cccc(F)c1)c1ccc2nc(N3CCOCC3)sc2c1 | inconclusive: 0.164 µM [inhibitor, single point] | 

Row | Compound | Potency | activity change, negative = inhibition
49 | O=C(O)c1ccc(/C=N/NC(=O)C(O)(c2ccccc2)c2ccccc2)cc1 |  | inactive: 10.7%
50 | Cn1c(C(=O)NC2CCCC2)cc2c(=O)n(C)c3ccccc3c21 | inconclusive: 32.6 µM [inhibitor, single point] | 
51 | CC(O)CNc1nc2ccccc2n1CC(=O)N1CCN(Cc2ccccc2)CC1 (stereo not given) |  | inactive: 4.22%
52 | O=C(O)CCN1C(=O)/C(=C\c2cccc(OCC(=O)Nc3ccc(Cl)cc3)c2)SC1=S | inconclusive: 18.3 µM [activator, partial curve] | 
53 | Cc1nn(-c2ccccc2)c(Cl)c1/C=N/NC(=O)c1ccccc1F | inconclusive: 16.4 µM [activator, partial curve] | 
54 | Cn1nnc(NC(=S)NC(=O)c2cc(Cl)ccc2Cl)n1 |  | inactive: 17.4%
55 | Clc1ccc(/C=N/N2CCN(Cc3ccccc3)CC2)cc1 | inconclusive: 18.3 µM [activator, single point] | 
56 | CC(C(=O)Nc1ccc2c(c1)OCO2)N(C)CC(=O)Nc1ccccc1Cl (stereo not given) | inconclusive: 23.1 µM [inhibitor, single point] | 
57 | CC(C)(C)C(=O)N1CCc2cc(-c3csc(N)n3)ccc21 |  | inconclusive: 123% [activator]
58 | COc1ccc(NC(=O)CSc2ncc(-c3ccc(F)cc3)n2Cc2ccco2)cc1 | inconclusive: 23.1 µM [inhibitor, single point] | 
59 | Cc1cc(=O)n2[nH]cnc2n1 | inconclusive: 20.6 µM [activator, partial curve, poor fit] | 
60 | COc1cccc(OCc2cc(C(=O)N(C)CCC3CCCCO3)no2)c1 (stereo not given) | inconclusive: 20.6 µM [activator, partial curve, poor fit] | 
61 | COc1ccc2c(c1)c(C(=O)CNc1nc(C)cs1)c(C)n2C | inconclusive: 18.4 µM [inhibitor, single point] | 
62 | O=C(c1ccc2c(=O)n(-c3ccccc3)c(=S)[nH]c2c1)N1CCN(c2ccccc2)CC1 | inconclusive: 29.1 µM [inhibitor, single point] | 
63 | COc1ccc(-c2cc(C(F)(F)F)nc(SCC(=O)Nc3cc(C)on3)n2)cc1OC | inconclusive: 18.4 µM [inhibitor, partial curve] | 
64 | Cc1ccc(CN2[C@@H](CC3CCCCC3)COCCS2(=O)=O)cc1 |  | inactive: 4.31%
65 | O=C(O)CSC1CC(=O)N(c2ccc(Br)cc2)C1=O (stereo not given) |  | inactive: -3.63%
66 | O=C(c1ccc(NS(=O)(=O)c2ccc(F)cc2)cc1)N1CCCCC1 |  | inactive: 10%
67 | Cc1ccc(C(=O)Cn2c(C(=O)OCCO)cc3ccccc32)cc1 |  | inactive: -22.2%
68 | O=S(=O)(Nc1ncccn1)c1ccc(NC(=S)NCCc2ccccc2)cc1 |  | inactive: 8.71%
69 | COc1c(-c2ccccc2)oc2c(ccc3occc32)c1=O | inconclusive: 20.6 µM [inhibitor, single point] | 
70 | CN1CCN(c2ccc(NC(=O)c3ccccc3Br)cc2)CC1 | inconclusive: 11.6 µM [activator, partial curve] | 

Compounds listed so far that contain a nitro group on carbon (two):
Row | Compound | Potency | activity change, negative = inhibition
25 | CCCCCC(=O)Nc1cccc(C2=NOC3(C2)C[C@@H](C(N)=O)N(C(=O)Cc2ccc([N+](=O)[O-])cc2)C3)c1 (stereo not given in full) | active: 13 µM | 
29 | O=C(O)c1ccc(-n2ncc3c2/C(=C/c2cccc([N+](=O)[O-])c2)CC3)cc1 | inconclusive: 2.06 µM [activator, full curve] | 
